Results from PubChem BioAssay AID651664 (NMMLSC, 2012).
Screen size: about 1,800 compounds; fewer than 10 were called active.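 Rule for the calls: active = inhibition of granule release above a set limit; inactive = the rest.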 The list shows a part of the results.

test: LAMP-1 surface externalization blockers in TALL-104 cells – cell-based, flow cytometry, validation set (AID 651664); settings: TALL-104 LAMP-1 externalization, at 15.2 µM, active compounds read high, stimulated with thapsigargin and PMA

inhibition, inactive:
CCCc1nnc(NC(=O)CNc2ccc(F)cc2)s1 3.5%
O=C(c1ccc(F)cc1)c1ccc(N2CCCC2)cc1 -4.5%
O=C(NCCCN1CCN(c2cccc(Cl)c2)CC1)C1CCC(=O)N1Cc1ccccc1Cl (stereo unspecified) 0.3%
Fc1ccc(Nc2nc(N3CCOCC3)c3ccccc3n2)cc1 1.6%
O=C(Cc1ccc(Cl)cc1)Nc1ccc(N2CCN(C(=O)c3ccco3)CC2)c(Cl)c1 14%
Cc1ccc(-c2nnc(CSc3nc(C(C)C)nc4sc(C)c(C)c34)o2)cc1 -1.3%
OCCN=c1cc(-c2ccccc2)oc2ccc(Cl)cc12 3.5%
Cc1ccc(C(=O)Cn2cnc3ccccc3c2=O)cc1C 6.9%
COc1cc(NC(=O)CN2c3cccc4cccc(c34)S2(=O)=O)cc(OC)c1OC 2.7%
CN(Cc1cnn(C)c1)C(=O)c1cc2ccccc2oc1=O -4.1%
O=C(Nc1ccccc1C(=O)O)c1ncn[nH]1 0.2%
O=C(NNC(=S)Nc1ccccc1)c1ccncc1 3.4%
COc1ccc(C(=O)c2ccc(N3CCN(C(=O)c4ccc(F)cc4)CC3)c(F)c2)cc1Br -2.8%
CN(c1cc(=O)n2ccccc2n1)C1CCCCC1 50.5%
Cc1ccc(C(=O)CCC(=O)Nc2cccc(C(F)(F)F)c2)cc1C 0.9%
O=C(Nc1scc(-c2ccc(F)cc2)c1C(=O)O)c1ccco1 -1.6%
CCC1=[N+](C)CCn2c(C)ccc21 -1.8%
Cc1occc1C(=O)Nc1ccc2ccccc2c1 0.2%
Cc1c(Cl)cccc1NC(=O)c1cc(-c2ccccc2O)n[nH]1 0.4%
CCCS(=O)(=O)N1CCCC(C(=O)NCCCOC(C)C)C1 (stereo unspecified) 1.9%
O=C(OCC(=O)N1CCCc2ccccc21)c1ccc(Br)o1 -1.9%
O=C1C2C3CCC(C3NCc3ccccc3)C2C(=O)N1Cc1ccccc1 (stereo unspecified) 2.1%
CCCCn1c(-c2nn(C)c(C)c2Cl)n[nH]c1=S 1.2%
COc1ccc(C(=O)C(CCCCC(CN(C)C)C(=O)c2ccc(OC)cc2)CN(C)C)cc1 (stereo unspecified) 0.3%
CCOC(=O)C1=C(NC(=S)NC(=O)c2ccccc2)c2ccccc2CC1(C)C 2.1%
Cc1nn(C(=O)CN2C(=O)c3ccccc3C2=O)c(C)c1Br 11.9%
CC(=O)c1cc2c(cc1NC(=O)CN1CCN(c3ccc(F)cc3)CC1)OCO2 2.7%
Cc1cccc2cc3c(NC(=O)CC(C)C)nn(C)c3nc12 3.1%
Cn1nc(C(F)(F)F)c2cc(C(=O)NC3CC3)sc21 -2.5%
CSc1sc(C(=O)O)c(C)c1C(C)=O -3.7%
CCNC(=O)CC1C(=O)N(C)C(=S)N1NC(=O)c1ccc(Cl)cc1 (stereo unspecified) -1.3%
COCCCNC(NC(=O)c1ccc(C)cc1)C(Cl)(Cl)Cl (stereo unspecified) 0.2%
Cc1csc(NC(=O)Cc2coc3cc(C)c(C(C)C)cc23)n1 -2.3%
COc1ccc(O)c(-c2cc(-c3cccc(Br)c3)n[nH]2)c1 2.3%
Cc1ccc(C)c(-c2nc3cc(N)ccc3o2)c1 0.2%
O=C(c1ccc2ncsc2c1)N1CCN(c2ccc(O)cc2)CC1 0.5%
Cc1ccc(NC2OC(C(O)CO)C(O)C2O)cc1[N+](=O)[O-] (stereo unspecified) -4.3%
O=C(O)C1C2CCC(C2)C1C(=O)NCc1ccccn1 (stereo unspecified) 0.2%
C(=C\c1ccccc1)/C=N/Nc1nc(N2CCCCC2)nc(N2CCCCC2)n1 -2.3%
Cc1csc2nc(CNC(=O)c3ccco3)cn12 0.2%
CC(C)Oc1nnnn1-c1ccccc1 0.1%
Cc1c(NC(=O)C2CC=CCC2C(=O)O)c(=O)n(-c2ccccc2)n1C (stereo unspecified) -0.1%
[O-]C1=N/[N+](=C/c2ccccc2Cl)CC1 -2.2%
O=Cc1cn(-c2ccccc2)nc1-c1ccc2c(c1)OCCO2 0%
CSC1=C(C#N)C(CC(C)C)C2=C(CCCC2=O)N1 (stereo unspecified) -1.6%
Cc1ccc(C(=O)N/N=C/c2cc(C)n(-c3ccc(Br)cc3)c2C)cc1[N+](=O)[O-] 4.1%
CCC(C)[C@H](NC(=O)Nc1ccc(Oc2ccccc2)cc1)C(=O)O (stereo partly specified) -1.6%
Cc1csc(SCC(=O)Nc2sc3c(c2C#N)CCC3)n1 -1.7%
C/C(=C(\C#N)C(=O)NCc1ccccc1)N(C)C -0.4%
Cc1cc(C(F)(F)F)nn1CC(=O)Nc1cccnc1 -2.8%
COC(=O)c1cc(COC(=O)c2ccc(OC)c(S(=O)(=O)N3CCCC3)c2)oc1C 1.5%
O=C(Nc1cccc2ncccc12)c1ccc2c(c1)OCCO2 0.7%
COCC(=O)Nc1nc(-c2ccc(C)cc2)c(C)s1 -2.2%
CC(C)(C)C(=O)N1CCc2cc(-c3csc(N)n3)ccc21 -0.2%
Cc1ccc2nc3c(cc2c1)c(NS(=O)(=O)c1ccccc1)nn3CC(C)C -2%
O=C(NCC1c2ccccc2CCN1C(=O)CN1CCOCC1)C1CCCCC1 (stereo unspecified) -1.8%
O=C(c1ccc2c(c1)C(=O)N(c1ccc(Cl)cc1)C2=O)N1CCN(c2ccccn2)CC1 -5.2%
O=c1c2cnn(-c3ccc(F)cc3)c2ncn1Cc1ccccc1 -2.1%
O=C(CCOc1ccccc1)N1CCN(S(=O)(=O)c2cccs2)CC1 -2.8%
CCNC(=S)NNC(=O)Cc1ccccc1 2.1%
CCCNc1nc(NCC)nc(OC)n1 -1.6%
CCn1c(N)c(C(=O)NCc2ccco2)sc1=S -0.7%
COc1ccc2nc(NC(=O)CCn3cccc3)sc2c1 -2.5%
c1ccc2nc(-c3nc4ccccc4[nH]3)ccc2c1 0.9%
Oc1ccc(-c2nc3ccccn3c2NCc2ccco2)cc1 -1.4%
COc1ccc(C(=O)Cn2c(=O)c(CCC(=O)O)nn3c4ccccc4nc23)cc1OC -3.1%
O=C(NC1CC2CCC1C2)C1CCN(S(=O)(=O)c2ccc(-c3nn[nH]n3)cc2)CC1 (stereo unspecified) -2.4%
OC(CN1C2=NCCN2c2ccccc21)c1ccc2c(c1)OCO2 (stereo unspecified) -4.2%
COc1cc(CC(=O)OCC(=O)c2ccc3c(c2)OCCO3)cc(OC)c1OC 0.6%
O=C(CN1CCN(S(=O)(=O)c2ccc3ccccc3c2)CC1)N1CCc2ccccc2C1 -1.3%
CC(C)=CC(=O)OCC(=O)Nc1ccc(F)cc1Cl -1.7%
O=C(Nc1ccccc1)N1CCN(c2ccccn2)CC1 -1.4%
CO/N=C\C(=N\Nc1ccc(OC)cc1)C(=O)c1ccccc1 0.8%
CS/C(=C\[N+](=O)[O-])Nc1ccccc1 0.5%
O=C(Nc1ccc(-n2cnnn2)cc1)C1CCCCC1 -1.5%
CCN(CC)CCOC(=O)c1cccc(Cl)c1 -2.3%
COc1ccccc1NC(=O)CCN1CC(C)OC(C)C1 (stereo unspecified) 1.4%
COc1ccc(S(=O)(=O)N(C)c2c(C)n(C)n(-c3ccccc3)c2=O)cc1OC 0.6%
O=C(C(Cc1ccccc1)N1C(=O)c2ccccc2C1=O)N1CCc2ccccc21 (stereo unspecified) 1.6%
CN(Cc1ccccc1)C(=O)CCSc1nc(-c2ccc3c(c2)OCO3)cc(C(F)(F)F)n1 -0.3%
CC(=O)NC1=NN(C(C)=O)C(C)(CS(=O)(=O)c2ccc3ccccc3c2)S1 (stereo unspecified) 1.1%
Nc1cc(=O)[nH]c(SCCNS(=O)(=O)c2ccccc2)n1 -1.4%
Cc1ccc(-c2nc3ncccn3c2NC(=O)C2CC2)cc1 0.8%
CC1(C)Cc2c(sc3ncn(N)c(=N)c23)CO1 1.3%
O=C(CCc1ccc(S(=O)(=O)N2CCOCC2)cc1)Nc1nccs1 1.5%
CCCCN(CCCC)c1nc(OC)nc(-n2nnc(C(C)=O)c2C)n1 2.6%
Cn1c2c(c(=O)n(C)c1=O)C(c1ccc(O)cc1)Nc1ccccc1O2 (stereo unspecified) 2.7%
Cc1ccc(-c2[nH]c3ccccc3c2C(C[N+](=O)[O-])c2ccco2)cc1 (stereo unspecified) -2%
Cc1ccsc1C(=O)OCC(=O)NCc1ccc2c(c1)OCO2 -2.5%
COc1ccc(-c2cc(-c3ccccc3O)[nH]n2)cc1 -2%
CCN(CC)CCOC(=O)c1c(C)n(C)c2ccc(OC)cc12 -2.4%
CCOC(=O)Cc1csc(SCn2nnc3ccccc3c2=O)n1 -2.1%
COc1ccc2nc(NC(=O)CN3CCN(C)CC3)sc2c1 2.4%
COc1ccccc1-n1cnc(N)c1C(C)=O -1.8%
Cc1onc(-c2ccccc2)c1C(=O)Nc1c(C)n(C)n(-c2ccccc2)c1=O 2.2%
Cc1cc2nc(SCCN3CCOCC3)[nH]c2cc1C -2.5%
Clc1ccc(CON/C=N/c2ncnc3sccc23)cc1 -1.5%
O=C(Cc1ccc(Cl)cc1)Nc1ccccc1N1CCOCC1 -1.1%
C=CCn1cc(-c2ccccc2)cc(C#N)c1=O -1%
O=C(O)CNC(=O)c1ccccc1F 0.3%
Cn1c(CN2CCCC2)nc2cc(NS(=O)(=O)c3ccc(Cl)cc3)ccc21 -3.8%

Copied from above (2 entries):
inhibition, inactive:
Cc1c(Cl)cccc1NC(=O)c1cc(-c2ccccc2O)n[nH]1 0.4%
CCCS(=O)(=O)N1CCCC(C(=O)NCCCOC(C)C)C1 (stereo unspecified) 1.9%

Reprinted at random: 4 compounds from above.
inhibition, inactive:
Cc1c(Cl)cccc1NC(=O)c1cc(-c2ccccc2O)n[nH]1 0.4%
CCCS(=O)(=O)N1CCCC(C(=O)NCCCOC(C)C)C1 (stereo unspecified) 1.9%
CC(C)(C)C(=O)N1CCc2cc(-c3csc(N)n3)ccc21 -0.2%
COC(=O)c1cc(COC(=O)c2ccc(OC)c(S(=O)(=O)N3CCCC3)c2)oc1C 1.5%
